PMC7876108, “Cryo-EM structures of engineered active bc1-cbb3 type CIII2CIV super-complexes and electronic communication between the complexes” (Nature Communications, 2021)
Results are given in words; binding and its absence hold for the method and conditions named. For some assays here: Binding calls can cover weak binding; strength is not graded here.

Chains of the proteins cited; added tags and fusions are not shown. Lines headed by an entry give the natural chain unless they say otherwise; changes in a name come on top.
UniProt D5ARP5: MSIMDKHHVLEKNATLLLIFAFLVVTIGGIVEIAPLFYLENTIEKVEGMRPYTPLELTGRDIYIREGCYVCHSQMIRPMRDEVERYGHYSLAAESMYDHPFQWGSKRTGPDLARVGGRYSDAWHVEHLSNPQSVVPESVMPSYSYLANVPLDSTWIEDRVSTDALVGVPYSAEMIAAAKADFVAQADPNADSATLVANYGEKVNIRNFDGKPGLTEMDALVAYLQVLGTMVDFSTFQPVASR

Columns and labels:
[1] = biological target: bipartite bc1-cbb3-type supercomplex (His-tagged bipartite SC, CIII2CIV) (Rhodobacter capsulatus); assay: SEC; 5-10-fold molar excess of purified cyt c (cyt cy or cyt S-cy) mixed with 125 ug purified bipartite SC in 150 uL TBS (50 mM Tris-HCl pH 7.4, 150 mM NaCl, 0.01% DDM); Superose 6 Increase; fractions by SDS-PAGE and silver staining; both purified
[2] = biological target: bipartite bc1-cbb3-type supercomplex (His-tagged bipartite SC, CIII2CIV) (Rhodobacter capsulatus); assay: cryo-EM structure; purified bipartite SC mixed with 5-fold molar excess of purified cyt cy; map SC-2A, 5.2 A; models fitted as rigid bodies; both purified
[3] = biological target: CcoO, subunit of cbb3-type CIV (Rhodobacter capsulatus) (UniProt D5ARP5); assay: cross-linking; XL-MS: 300 ug purified cbb3-type CIV with 2-fold molar excess of cyt c2, 20 mM DMTMM, 1 h, room temperature, low salt (20 mM Na-phosphate pH 7.4, 1 mM NaCl, 0.01% DDM); both purified
[4] = biological target: cbb3-type cytochrome c oxidase (Complex IV, CIV) (Rhodobacter capsulatus); assay: SEC; 2-fold molar excess of purified cyt c2 with 300 ug purified CIV, low salt (20 mM Tris-HCl pH 7.4, 1 mM NaCl, 0.01% DDM); Superose 6 Increase; fractions by SDS-PAGE and silver staining; both purified
[5] = biological target: bipartite bc1-cbb3-type supercomplex (His-tagged bipartite SC, CIII2CIV) (Rhodobacter capsulatus); assay: condition: 5-10-fold molar excess of cyt S-cy over 125 ug SC; SEC; 5-10-fold molar excess of purified cyt c (cyt cy or cyt S-cy) mixed with 125 ug purified bipartite SC in 150 uL TBS (50 mM Tris-HCl pH 7.4, 150 mM NaCl, 0.01% DDM); Superose 6 Increase; fractions by SDS-PAGE and silver staining; both purified

B1: cytochrome cy, full length (membrane-anchored) (protein, UniProt Q05389 1-199)
chain: MLVKTHITKIGVTLFAVALFYGFIYMLSNSLFATRPATAVAVGADGKALLPSVDEAAMPAKAPAAAAPAAETAEAAAPAEPAAPPPPAYVEVDPATITGDAKAGEEKFNKTCKACHKIDGKNAVGPHLNGVIGRATATVEGFKYSTAMKNHVGNWTPERLDIYLVSPKAEVPGTKMSFVGLPEAADRANVIAYLNTLPR
- binding [1]: binds
- binding [2]: binds

B2: cytochrome c2 (natural protein, Rhodobacter capsulatus, UniProt P00094 22-137, looked up)
chain: GDAAKGEKEFNKCKTCHSIIAPDGTEIVKGAKTGPNLYGVVGRTAGTYPEFKYKDSIVALGASGFAWTEEDIATYVKDPGAFLKEKLDDKKAKTGMAFKLAKGGEDVAAYLASVVK
notes: soluble cytochrome c2, Rhodobacter capsulatus; also called cyt c2; source: purified R. capsulatus cyt c2
- binding [3]: binds
- binding [4]: binds

B3: cyt S-cy, soluble variant of cyt cy lacking the TMH (domain or fragment, UniProt Q05389 99-199)
chain: GDAKAGEEKFNKTCKACHKIDGKNAVGPHLNGVIGRATATVEGFKYSTAMKNHVGNWTPERLDIYLVSPKAEVPGTKMSFVGLPEAADRANVIAYLNTLPR
- binding [5]: no binding
